Patent publication US20130231305A1, “Method of Modulating Protein 14-3-3 Functionality By Facilitating or Inhibiting Phosphorylation” (Medvet Science Pty. Ltd., priority 2010, published 2013)
At least one structure is not confirmed: it was looked up by name or label, or the drawing left a doubt. Some of these results come from one statement about several compounds together.

Sequences of proteins named here, by UniProt entry; tags and fusion partners are left off. A change or cut given only in a name is not applied to a line headed by its entry. Residues count along the entry.
UniProt Q05655, 330-676 limits assumed: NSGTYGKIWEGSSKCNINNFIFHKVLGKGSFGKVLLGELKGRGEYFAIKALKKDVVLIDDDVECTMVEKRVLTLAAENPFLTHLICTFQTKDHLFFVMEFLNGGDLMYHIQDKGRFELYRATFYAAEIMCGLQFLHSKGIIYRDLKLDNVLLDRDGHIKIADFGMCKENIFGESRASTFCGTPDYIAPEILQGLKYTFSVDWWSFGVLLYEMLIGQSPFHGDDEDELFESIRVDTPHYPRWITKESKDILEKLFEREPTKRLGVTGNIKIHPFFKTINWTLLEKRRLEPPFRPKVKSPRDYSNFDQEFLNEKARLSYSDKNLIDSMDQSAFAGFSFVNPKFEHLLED

Assays:
[1] = target: T1, PKCδCat-HA (Homo sapiens, UniProt Q05655); assay: PKC kinase activity assay with Ser25 peptide substrate; assay type: biochemical; details: 50 μM DMS
T1 construct: recreated exactly the N-terminus of the caspase-3 cleaved protein; additional initiator methionine (N); expressed in transfected cells; host or cells: COS cells, anti-HA immunoprecipitate
Description: FIG. 5 is an image depicting that DMS is required for phosphorylation of 14-3-3ζ by PKCδCat but not for activation of the kinase. COS cells were transfected with either an empty expression construct (Mock) or one encoding a HA-tagged truncated form of PKCδ corresponding to the caspase-3 cleaved protein (PKCδCat-HA). 20 hours after transfection the cells were lysed and PKCδCat-HA was immunoprecipitated using an anti-HA antibody. (A) PKC assays were carried out on the immunoprecipitates from mock (open bars) and PKCδCat-HA (shaded bars) expressing cells using Ser25 peptide as substrate with [^32P]γ-ATP in the presence or absence of 100 μM DMS (delivered in 0.1% ethanol) or 10 μM of GF109203X (GFX), the PKC inhibitor. The values represent means±S.E. of triplicate determinations. (B) PKCδCat-HA immunoprecipitates were incubated with recombinant 14-3-3ζ and [^32P]γ-ATP in the presence or absence of DMS or GF109203X (GFX). Phosphorylated 14-3-3 was detected by autoradiography after separation of SDS-PAGE (upper panel). The gel was also coomassie stained to show equal loading of 14-3-3 protein (lower panel). […]
Equal amounts of PKCδCat-HA immunoprecipitate were used to assay for PKC kinase activity, or to phosphorylate recombinant 14-3-3. […] Following incubation, reactions were separated on 12.5% SDS-PAGE, coomassie stained and 14-3-3 phosphorylation analysed by autoradiography.

[2] = target: T2, 14-3-3ζ (Homo sapiens, UniProt P63104); assay: 14-3-3 phosphorylation by PKA catalytic subunit (autoradiography); assay type: biochemical; details: for phosphorylation of 14-3-3ζ on Ser58 by PKA catalytic subunit: 50 μM lipid delivered in 0.1% ethanol, autoradiography
T2 construct: made in house
T2 sequence (P63104 1-245): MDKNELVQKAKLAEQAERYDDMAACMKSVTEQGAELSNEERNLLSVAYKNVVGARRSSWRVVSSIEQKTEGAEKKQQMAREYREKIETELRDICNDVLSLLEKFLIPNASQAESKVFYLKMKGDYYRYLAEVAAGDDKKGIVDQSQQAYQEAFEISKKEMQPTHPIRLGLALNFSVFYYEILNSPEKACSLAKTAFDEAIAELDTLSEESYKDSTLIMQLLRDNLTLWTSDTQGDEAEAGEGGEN
Description: 14-3-3ζ (wild-type or S58A mutant) was incubated with the catalytic subunit of PKA in the presence (+) or absence (−) of 50 μM sphingosine (A) or DMS (B) delivered in 0.1% ethanol. Phosphorylated 14-3-3ζ was detected by autoradiography.
The assay was carried out by incubating 14-3-g (0.5 μg) with catalytic subunit of PKA (0.2 Units) with the indicated concentration of DMS delivered in 0.1% ethanol. Reactions were separated on SDS-PAGE and phosphorylated protein detected by autoradiography. […] (B) 14-3-3ζ was incubated with the catalytic subunit of PKA and 50 μM D-erythro-sphingosine (Sph), D-erythro-trimethyl-sphingosine (TMS), D-erythro-dihydro-sphingosine (DHS), phyto-sphingosine (PSph), D-erythro-sphingosine-1-phosphate (SIP), C2-ceramide (C2-Cer), sphingomyelin (SM), spermine (Sper) or linoleic acid (LA), all delivered in 0.1% ethanol. Phosphorylated 14-3-3ζ was detected by autoradiography.
(§1) Substrate 14-3-3 (either 0.5 μg of purified recombinant 14-3-3, a […] of fractions from gel filtration or immunoprecipitates from 14-3-3ζ-Myc transfected COS cells) were added to reaction mixture comprising 0.2 Units of the PKA catalytic subunit, in the presences or absence of sphingolipid (delivered in 0.1% v/v ethanol) in PICA reaction buffer (20 mM MOPS, pH 7.4, 20 mM β-glycerol phosphate, 4 mM EGTA, 1 mM Na3VO4, 60 mM MgCl2, 1 mM DTT, 500 μM ATP, 2.4 μCi [^32P]γ-ATP). Reactions were incubated at 37° C. for 15 minutes. After incubation, reactions were separated on 12.5% SDS-PAGE, coomassie stained and 14-3-3 phosphorylation analysed by autoradiography.

[3] = target: T3, 14-3-3ζ-Myc (Homo sapiens, UniProt P63104); assay: PKA phosphorylation of 14-3-3ζ-Myc immunoprecipitated from COS cells, with or without SK1 treatment; assay type: biochemical
T3 construct: human 14-3-3ζ was generated by cloning the entire cDNA; expressed in transfected cells; host or cells: COS cells, anti-Myc immunoprecipitate
T3 sequence (P63104 1-245): T2 sequence (P63104 1-245)

[4] = test system: Jurkat cells; assay: Jurkat cell apoptosis (TMRE staining, NucView caspase activity); assay type: cell-based; details: 2 μM
Text: (A) Immunoblotting of lysates from either parental Jurkat cells (Jurkat) or cells transduced with lentivirus encoding either wild type (Wt) or S58A 14-3-3ζ-Myc with either an anti-14-3-3ζ specific antibody (upper panel) or an anti-pan 14-3-3 antibody (middle panel) to compare the expression level of transduced protein. Myc immunoprecipitates were also immunoblotted with an anti-phospho 14-3-3 binding site antibody (lower panel) to detect proteins associated with 14-3-3ζ-Myc. Endogenous 14-3-3 is indicated by an open arrow and exogenous 14-3-3ζ-Myc with a closed arrow. (B) Lysates from either wild type (Wt) or S58A 14-3-3ζ-Myc expressing Jutkat cells were subjected to in vitro PKA phosphorylation in the presence (+) or absence (−) of […] and the samples immunoblotted after SDS-PAGE separation With either anti-Myc antibody (upper panel), anti-14-3-3ζ antibody (middle panel) or anti-phospho Ser58 14-3-3ζ antibody (lower panel). (C) Serum-starved Jurkat cells were treated with 2 μM FTY720 for 4 h prior to staining with TMRE and NucView™. Forward- versus side-scatter plots (FS versus SS) show the viable cell populations for FTY720 and EtOH (vehicle) treated cells which are analysed in the lower histograms for caspase activity (NucView™) versus ΔΨM (TMRE). (D and E) Jurkat cell lines expressing either wild type or S58A 14-3-3ζ-Myc by lentiviral transduction were serum-starved for 2 h and treated with either 0.1% ethanol vehicle alone (EtOH), 2 μM dimethyl-sphingosine (DMS), or 2 μM FTY720. Cells were analysed by TMRE staining at 4 h (D) or at the time points indicated (E). […]
FIG. 11. […] Effect of TMAs on Jurkat cells after 16 hours incubation assessed by ΔΨM (TMRE) and caspase 3 activity (NucView™) analysis. […] Forward-side-scatter histograms showing cell viability are inset and caspase 3 activity as assessed by NucView™ analysis of viable cells shown. E. Examples of TMA-derivatives of FTY720 that will be analysed for effects on 14-3-3 dimer stability and apoptosis. […]

[5] = test system: 14-3-3 isoforms; assay: Phosphorylation of recombinant 14-3-3 isoforms by PKA catalytic subunit; assay type: biochemical; details: 50 μM in 0.1% ethanol
Description: FIG. 3 is an image depicting that sphingosine is required for the phosphorylation of multiple 14-3-3 isoforms in the third helix. (A) Primary sequence alignment of 14-3-3 isoforms in the third helix showing conservation of a Ser phosphorylation site (shown in bold). Asterisks indicate identical amino acids. (B) Recombinant 14-3-3 isoforms were incubated with PKA catalytic subunit in the presence of 50 μM sphingosine, dimethyl-sphingosine (DMS) or FTY 720 (FTY) delivered in 0.1% ethanol (EtOH). Phosphorylated 14-3-3s were detected by autoradiography. Gels were coomassie stained to show equal loading of 14-3-3 substrate.
as §1

[6] = target: T2, 14-3-3ζ; assay: Gel filtration of 14-3-3ζ with DMS and [3H]-sphingosine; assay type: binding
Description: FIG. 4 is a graphical representation depicting that sphingosine binds to 14-3-3 in vitro. 10 μg of recombinant 14-3-3 was incubated for 15 minutes at room temperature in 50 μl of buffer either in the absence (FIG. A, thick line) or presence of [^3H]-sphingosine (0.5 μCi) with 25 μM DMS (thin line). After incubation, the mixtures were separated by gel filtration as described under “examples”. (A) Absorbance at 280 nm was monitored continuously to identify the elution position of 14-3-3 protein. An aliquot of each eluted fraction was analysed for (B) sphingosine-binding to 14-3-3 by measuring [^3H]-sphingosine radioactivity as determined by scintillation counting; and (C) 14-3-3 phosphorylatability by incubation with 0.2 Units of PKA catalytic subunit and [^32P]γ-ATP. Phosphorylated 14-3-3 was detected by autoradiography. The chromatography and assays were repeated twice and similar results obtained.
Recombinant 14-3-3ζ (10 μg) was pre-incubated with 25 μM […] delivered in 0.1% v/v ethanol and [^3H]-sphingosine, (0.5 μCi) and then chromatographed on a SMART system with a Superdex 200PC 3.2/30 column (Amersham Biosciences, Australia). The system was operated at 40 μl/min using 20 mM Tris-HCl pH 7.5, 150 mM NaCl, 0.1 mM DTT, 10 mM β-mercaptoethanol as running buffer. Fractions (40 μl) were collected for 60 minutes after sample injection. […]

[7] = 4 h, serum-starved Jurkat cells

| Structure (SMILES) | effect on PKCδCat kinase activity [1] | phosphorylation of 14-3-3ζ on Ser58 by PKA catalytic subunit [2] | phosphorylation of 14-3-3ζ on Ser58 by PKA catalytic subunit ([2]; listed as dimethyl-sphingosine) | concentration giving maximal phosphorylation of 14-3-3ζ ([2]; DMS dose-response, FIG. 2A) [µM] | concentration giving robust phosphorylation of 14-3-3ζ ([2]; DMS dose-response, FIG. 2A) [µM] | phosphorylation of immunoprecipitated 14-3-3ζ-Myc by PKA catalytic subunit ([3]; 50 μM DMS added, no SK1 treatment) | phosphorylation of immunoprecipitated 14-3-3ζ-Myc by PKA catalytic subunit ([3]; exogenous DMS added after SK1 treatment) | caspase-3 activity (NucView) [4, 7] | commitment to apoptosis (loss in TMRE staining) [4, 7] | commitment to apoptosis in S58A versus wild type 14-3-3ζ-Myc expressing cells (TMRE) ([4]; Jurkat cells expressing S58A 14-3-3ζ-Myc) | phosphorylation of 14-3-3 isoforms by PKA catalytic subunit [5] | concentration altering the behaviour of 14-3-3 on gel filtration (elution above dimer size) [6] [µM] |
| --- | --- | --- | --- | --- | --- | --- | --- | --- | --- | --- | --- | --- |
| CCCCCCCCCCCCC/C=C/[C@@H](O)[C@H](CO)N(C)C [DMS, dimethyl-sphingosine] | no significant effect | allowed phosphorylation | behaves identically to sphingosine in allowing phosphorylation | 25 | 3 to 6 | phosphorylated more strongly | restored phosphorylatability | activation of caspase-3 | rapid commitment to apoptosis | slows the commitment to apoptosis | all isoforms tested with the exception of 14-3-36 were phosphorylatable | ≥ 20 |
| CCCCCCCCCCCCC/C=C/[C@@H](O)[C@@H](N)CO [sphingosine, D-erythro-sphingosine] |  |  |  |  |  |  |  |  |  |  |  | ≥ 20 |
